Laboratory results reported in paper PMC5626551.
Positions count from the first letter of the chain named. Names and notes keep the numbering of the source. Results are given in words; binding and its absence hold for the method and conditions named. Binding seen in cells or lysates may run through a third protein. Some results given as binding are weak or reduced against the parent protein; the word gives no strength. For some assays here: Sequences can lack the tags named with a protein.

Protein sequences, listed by entry. Tags and fused reporters are not part of them.
UniProt P92177: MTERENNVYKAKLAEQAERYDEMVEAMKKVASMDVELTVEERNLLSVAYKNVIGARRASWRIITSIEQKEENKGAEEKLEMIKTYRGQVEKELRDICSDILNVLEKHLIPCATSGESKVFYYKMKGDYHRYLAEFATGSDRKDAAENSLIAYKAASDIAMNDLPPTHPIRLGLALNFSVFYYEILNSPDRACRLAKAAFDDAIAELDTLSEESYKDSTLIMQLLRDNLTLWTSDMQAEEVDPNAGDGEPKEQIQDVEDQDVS

B1: endogenous Ncd protein (protein, UniProt P20480 1-700)
chain: MESRLPKPSGLKKPQMPIKTVLPTDRIRAGLGGGAAGAGAFNVNANQTYCGNLLPPLSRDLNNLPQVLERRGGGARAASPEPMKLGHRAKLRRSRSACDINELRGNKRTAAAPSLPSIPSKVSRLGGALTVSSQRLVRPAAPSSITATAVKRPPVTRPAPRAAGGAAAKKPAGTGAAASSGAAAAAPKRIAPYDFKARFHDLLEKHKVLKTKYEKQTEDMGELESMPQQLEETQNKLIETESSLKNTQSDNECLQRQVKQHTAKIETITSTLGRTKEELSELQAIHEKVKTEHAALSTEVVHLRQRTEELLRCNEQQAAELETCKEQLFQSNMERKELHNTVMDLRGNIRVFCRIRPPLESEENRMCCTWTYHDESTVELQSIDAQAKSKMGQQIFSFDQVFHPLSSQSDIFEMVSPLIQSALDGYNICIFAYGQTGSGKTYTMDGVPESVGVIPRTVDLLFDSIRGYRNLGWEYEIKATFLEIYNEVLYDLLSNEQKDMEIRMAKNNKNDIYVSNITEETVLDPNHLRHLMHTAKMNRATASTAGNERSSRSHAVTKLELIGRHAEKQEISVGSINLVDLAGSESPKTSTRMTETKNINRSLSELTNVILALLQKQDHIPYRNSKLTHLLMPSLGGNSKTLMFINVSPFQDCFQESVKSLRFAASVNSCKMTKAKRNRYLNNSVANSSTQSNNSGSFDK
B2: Ncd-GFP (WT) (protein, UniProt P20480 1-700)
chain: B1 chain
B3: Ncd(S96A)-GFP (protein, UniProt P20480 1-700)
chain: B1 chain with S96A
B4: Ncd-3×A-GFP (protein, UniProt P20480 1-700)
chain: B1 chain with S79A, S96A, S114A
B5: Ncd(S94A)-GFP (protein, UniProt P20480 1-700)
chain: B1 chain with S94A

What was measured:
[1] = biological target: GST–14-3-3ε (Drosophila melanogaster) (UniProt P92177); assay: pull-down; glutathione-Sepharose beads preloaded with saturating GST–14-3-3ε or GST, 2 h at 4°C with ovary extract in lysis buffer (25 mM Tris pH 7.6, 50 mM NaCl, 0.5% Triton X-100, phosphatase inhibitors); Western blot with anti-Ncd; only the target purified
[2] = biological target: GST–14-3-3ε (Drosophila melanogaster) (UniProt P92177); assay: pull-down; glutathione-Sepharose beads preloaded with GST–14-3-3ε, 2 h at 4°C with lysates of S2 cells expressing versions of Ncd-GFP and depleted of endogenous Ncd by RNAi; Western blot with anti-GFP; only the target purified

Row | Binder | binding [1] | binding [2]
1 | B1 | binds | –
2 | B2 | – | binds
3 | B3 | – | binds weakly
4 | B4 | – | binds weakly
5 | B5 | – | binds
